Data source: PubChem BioAssay AID1224830 (NIAID, 2016)

Test: 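Regulators of TLR4 signalling towards TNF-alpha in macrophage-like cells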 (primary screen)
Cells: human THP-1 monocytic leukaemia cells, TNF dual-luciferase reporter clone, PMA-differentiated to macrophage-like cells
Reagents: siRNA pool against human genes, 50 nM
Time to read-out: LPS for 4 h, given about 3 days after siRNA transfection
Challenge: bacterial LPS (TLR4 ligand), 10 ng/ml
Measurement: 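Ratio of firefly to renilla light, scaled to the plate median and expressed as a robust z-score per replicate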
Reading the numbers: TNF reporter robust z-score: higher = stronger TNF reporter response to LPS
Active means: 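Each well counts as active if its z-score is over 2.8 or under -1.5; controls are left without a call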
Shown is one part, drawn at random, of about 18,000 reagents. In the full data, about 2,900 (16%) were called active. 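Calls are made per well; low scores hint the gene aids the LPS response, high scores that it dampens it.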 Repeated entries: four replicate wells of each siRNA pool.

no.	target gene	TNF reporter robust z-score	activity call
1	ZBED8L	0.44	inactive
2	ZBED8L	0.34	inactive
3	ZBED8L	-0.03	inactive
4	ZBED8L	-0.47	inactive
5	ACOT11	0.29	inactive
6	ACOT11	0.32	inactive
7	ACOT11	-0.85	inactive
8	ACOT11	-0.59	inactive
9	DAPK2	-0.68	inactive
10	DAPK2	-0.09	inactive
11	DAPK2	-0.74	inactive
12	DAPK2	-1.18	inactive
13	CLIC1	-0.19	inactive
14	CLIC1	-0.31	inactive
15	CLIC1	-0.23	inactive
16	CLIC1	-0.64	inactive
17	RPUSD2	1.36	inactive
18	RPUSD2	-0.24	inactive
19	RPUSD2	0.95	inactive
20	RPUSD2	0.19	inactive
21	GPR45	-0.4	inactive
22	GPR45	0.02	inactive
23	GPR45	-0.73	inactive
24	GPR45	-0.03	inactive
25	SMS	0.82	inactive
26	SMS	1.06	inactive
27	SMS	1.2	inactive
28	SMS	1.82	inactive
29	ZNF835	-0.77	inactive
30	ZNF835	-0.75	inactive
31	ZNF835	-0.91	inactive
32	ZNF835	-0.93	inactive
33	IFIT3	0.73	inactive
34	IFIT3	-0.23	inactive
35	IFIT3	-0.5	inactive
36	IFIT3	0.54	inactive
37	NEMF	1.51	inactive
38	NEMF	0.3	inactive
39	NEMF	0.83	inactive
40	NEMF	-0.33	inactive
41	CD33	-0.04	inactive
42	CD33	-0.73	inactive
43	CD33	-0.93	inactive
44	CD33	-0.58	inactive
45	RIF1	0.54	inactive
46	RIF1	-0.09	inactive
47	RIF1	0.75	inactive
48	RIF1	0.17	inactive
49	ASPDH	-0.29	inactive
50	ASPDH	-0.06	inactive
51	ASPDH	0.12	inactive
52	ASPDH	0.07	inactive
53	GPR108	1.63	inactive
54	GPR108	1.26	inactive
55	GPR108	0.85	inactive
56	GPR108	2.17	inactive
57	ITGAX	-0.19	inactive
58	ITGAX	0.19	inactive
59	ITGAX	-0.82	inactive
60	ITGAX	0.61	inactive
61	TAS1R2	-1.33	inactive
62	TAS1R2	-2.1	active
63	TAS1R2	-1.89	active
64	TAS1R2	-1.76	active
65	OR10H5	-0.01	inactive
66	OR10H5	-0.19	inactive
67	OR10H5	0.02	inactive
68	OR10H5	0.43	inactive
69	EIF4G3	0.63	inactive
70	EIF4G3	-0.07	inactive
71	EIF4G3	0.47	inactive
72	EIF4G3	0.13	inactive
73	ZNF263	-0.98	inactive
74	ZNF263	0.51	inactive
75	ZNF263	-0.24	inactive
76	ZNF263	-0.59	inactive
77	SIX4	-0.78	inactive
78	SIX4	-0.4	inactive
79	SIX4	-0.35	inactive
80	SIX4	-0.07	inactive
81	SETDB2	1.33	inactive
82	SETDB2	0.35	inactive
83	SETDB2	1.69	inactive
84	SETDB2	1.18	inactive
85	DSTYK	-1.74	active
86	DSTYK	-1.8	active
87	DSTYK	-1.84	active
88	DSTYK	-2.11	active
89	TMEM82	1.19	inactive
90	TMEM82	0.25	inactive
91	TMEM82	0.8	inactive
92	TMEM82	0.03	inactive
93	LRIT3	-0.68	inactive
94	LRIT3	0.57	inactive
95	LRIT3	0.14	inactive
96	LRIT3	-0.36	inactive
97	GPR148	1.64	inactive
98	GPR148	0.02	inactive
99	GPR148	-0.55	inactive
100	GPR148	1.19	inactive
101	ARF4	-1.33	inactive
102	ARF4	-0.08	inactive
103	ARF4	-0.85	inactive
104	ARF4	-0.23	inactive
105	ZNF335	-1.17	inactive
106	ZNF335	-0.25	inactive
107	ZNF335	-1.03	inactive
108	ZNF335	-0.6	inactive
109	SYNPO2L	1.14	inactive
110	SYNPO2L	2.12	inactive
111	SYNPO2L	2.87	active
112	SYNPO2L	0.81	inactive

Entries above whose target name starts with C or c (8):
target gene	TNF reporter robust z-score	activity call
CLIC1	-0.19	inactive
CLIC1	-0.31	inactive
CLIC1	-0.23	inactive
CLIC1	-0.64	inactive
CD33	-0.04	inactive
CD33	-0.73	inactive
CD33	-0.93	inactive
CD33	-0.58	inactive
